The values that follow come from publication doi:10.1101/309765.

The chains behind the UniProt entries cited, without tags or fusion partners.
UniProt P98170, whole entry: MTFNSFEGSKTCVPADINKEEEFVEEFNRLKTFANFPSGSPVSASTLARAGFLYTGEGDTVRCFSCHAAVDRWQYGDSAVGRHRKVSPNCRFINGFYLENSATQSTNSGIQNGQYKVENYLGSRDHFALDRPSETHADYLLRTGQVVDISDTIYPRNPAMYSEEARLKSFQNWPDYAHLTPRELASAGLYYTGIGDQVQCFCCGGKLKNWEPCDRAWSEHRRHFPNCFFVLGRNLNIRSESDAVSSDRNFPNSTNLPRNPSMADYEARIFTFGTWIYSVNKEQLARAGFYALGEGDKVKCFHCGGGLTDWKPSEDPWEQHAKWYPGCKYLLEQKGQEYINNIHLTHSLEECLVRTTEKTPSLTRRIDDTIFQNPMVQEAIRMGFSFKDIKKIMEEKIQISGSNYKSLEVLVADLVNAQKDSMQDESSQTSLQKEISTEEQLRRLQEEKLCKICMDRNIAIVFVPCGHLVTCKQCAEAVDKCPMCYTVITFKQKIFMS
UniProt P08047, whole entry: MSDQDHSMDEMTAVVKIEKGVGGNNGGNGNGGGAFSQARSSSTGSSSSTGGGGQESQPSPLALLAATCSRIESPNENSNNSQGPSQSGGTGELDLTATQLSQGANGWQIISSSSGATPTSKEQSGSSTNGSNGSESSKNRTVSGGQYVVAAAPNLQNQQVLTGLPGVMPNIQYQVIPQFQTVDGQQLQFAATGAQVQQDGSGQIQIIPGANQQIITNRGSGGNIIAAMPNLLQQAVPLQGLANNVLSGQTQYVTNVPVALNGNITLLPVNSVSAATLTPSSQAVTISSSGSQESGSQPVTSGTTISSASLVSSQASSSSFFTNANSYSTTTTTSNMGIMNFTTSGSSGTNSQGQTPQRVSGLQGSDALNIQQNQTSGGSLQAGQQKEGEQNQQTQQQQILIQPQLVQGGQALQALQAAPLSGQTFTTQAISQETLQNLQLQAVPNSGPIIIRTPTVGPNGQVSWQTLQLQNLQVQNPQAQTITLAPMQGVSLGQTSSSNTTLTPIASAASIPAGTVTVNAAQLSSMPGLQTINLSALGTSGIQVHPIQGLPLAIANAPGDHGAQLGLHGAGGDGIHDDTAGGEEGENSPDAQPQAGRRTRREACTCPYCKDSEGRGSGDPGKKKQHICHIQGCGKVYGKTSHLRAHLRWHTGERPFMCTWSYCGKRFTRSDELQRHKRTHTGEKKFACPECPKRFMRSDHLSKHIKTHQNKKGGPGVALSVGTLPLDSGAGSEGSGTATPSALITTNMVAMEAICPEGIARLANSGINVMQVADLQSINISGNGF

No constants are given. Whether binding was seen depends on the method and setting. Binding seen in cells or lysates may run through a third protein. Some entries that bind do so weakly or less than the wild type.

Assay [1] deals with HA-tagged XIAP (X-linked inhibitor of apoptosis protein) (human) (UniProt P98170). Description: co-IP.
The target in assay [2] is GFP-tagged Sp1 (human) (UniProt P08047). Description: co-IP.

Turning to “GFP-tagged Sp1 (from UniProt P08047 1-785)”, the binding result in assay [1] is “binds”.
On to “HA-tagged XIAP (X-linked inhibitor of apoptosis protein) (from UniProt P98170 1-497)”, for which the binding result in assay [2] is given as “binds”.
With “Sp1 (endogenous) (from UniProt P08047 1-785)”, the binding entry in assay [1] is “binds”.
